Measured values taken from publication PMC9358474.
These are yes or no findings as the source states them, for the method shown. Binding seen in cells or lysates may run through a third protein. Some results given as binding are weak or reduced against the parent protein; the word gives no strength.

Sequences of proteins named here, by UniProt entry; tags and fusion partners are left off.
UniProt Q9Z0Z7: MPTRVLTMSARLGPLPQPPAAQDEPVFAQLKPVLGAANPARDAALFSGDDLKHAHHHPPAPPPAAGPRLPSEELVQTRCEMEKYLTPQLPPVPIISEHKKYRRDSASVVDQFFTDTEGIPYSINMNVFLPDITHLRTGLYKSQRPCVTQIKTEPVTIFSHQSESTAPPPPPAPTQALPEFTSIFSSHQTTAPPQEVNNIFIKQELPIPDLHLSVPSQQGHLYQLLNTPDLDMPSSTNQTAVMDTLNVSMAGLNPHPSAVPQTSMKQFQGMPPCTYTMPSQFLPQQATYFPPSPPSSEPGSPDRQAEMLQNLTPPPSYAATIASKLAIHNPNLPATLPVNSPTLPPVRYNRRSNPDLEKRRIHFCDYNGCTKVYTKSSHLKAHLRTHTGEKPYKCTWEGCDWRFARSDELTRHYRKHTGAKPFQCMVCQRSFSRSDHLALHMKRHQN
UniProt Q9DBH0: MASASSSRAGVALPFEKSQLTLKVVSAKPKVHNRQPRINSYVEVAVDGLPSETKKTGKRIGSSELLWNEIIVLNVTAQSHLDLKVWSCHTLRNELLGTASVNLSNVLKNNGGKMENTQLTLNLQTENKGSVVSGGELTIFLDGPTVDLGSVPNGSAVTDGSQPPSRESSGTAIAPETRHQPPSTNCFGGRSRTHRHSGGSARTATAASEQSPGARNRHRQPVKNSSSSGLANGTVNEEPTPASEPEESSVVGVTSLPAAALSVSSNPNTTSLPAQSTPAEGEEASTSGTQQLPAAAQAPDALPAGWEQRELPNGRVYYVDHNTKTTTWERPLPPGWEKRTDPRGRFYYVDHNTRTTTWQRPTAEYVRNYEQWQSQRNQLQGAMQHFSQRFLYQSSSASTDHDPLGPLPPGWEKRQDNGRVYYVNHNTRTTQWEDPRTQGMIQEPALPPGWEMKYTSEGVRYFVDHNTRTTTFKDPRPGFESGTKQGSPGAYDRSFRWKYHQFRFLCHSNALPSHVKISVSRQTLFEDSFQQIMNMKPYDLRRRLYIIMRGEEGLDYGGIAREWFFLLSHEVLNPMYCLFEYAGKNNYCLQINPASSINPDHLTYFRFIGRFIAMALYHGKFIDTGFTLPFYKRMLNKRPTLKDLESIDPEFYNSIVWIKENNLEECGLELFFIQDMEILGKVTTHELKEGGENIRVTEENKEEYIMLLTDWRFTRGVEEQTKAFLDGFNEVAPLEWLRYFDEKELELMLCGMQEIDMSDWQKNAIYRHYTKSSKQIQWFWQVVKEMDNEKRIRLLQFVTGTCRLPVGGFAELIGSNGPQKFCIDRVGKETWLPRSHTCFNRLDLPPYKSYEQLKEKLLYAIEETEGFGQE
UniProt O08586: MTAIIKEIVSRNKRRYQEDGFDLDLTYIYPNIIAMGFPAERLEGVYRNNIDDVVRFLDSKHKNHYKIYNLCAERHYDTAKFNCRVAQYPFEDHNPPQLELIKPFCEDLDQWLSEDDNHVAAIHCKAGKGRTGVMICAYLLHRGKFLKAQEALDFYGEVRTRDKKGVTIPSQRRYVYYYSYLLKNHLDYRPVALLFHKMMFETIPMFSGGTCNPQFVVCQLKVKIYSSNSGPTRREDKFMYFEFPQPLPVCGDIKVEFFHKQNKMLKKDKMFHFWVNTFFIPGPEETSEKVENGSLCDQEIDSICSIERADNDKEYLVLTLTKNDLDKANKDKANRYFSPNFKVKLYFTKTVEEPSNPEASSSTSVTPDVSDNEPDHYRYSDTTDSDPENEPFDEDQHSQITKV

How the values were obtained:
[1] = target: Kruppel-like factor 5 (KLF5), endogenous (mouse (endogenous in mDPCs and molars)) (UniProt Q9Z0Z7); assay: co-IP; endogenous proteins in mDPC lysates; primary antibody or control IgG at 4 °C overnight, protein A/G magnetic beads, Western blot
[2] = target: WW domain-containing E3 Ubiquitin-protein ligase 2 (WWP2), endogenous (mouse (endogenous in mDPCs and molars)) (UniProt Q9DBH0); assay: as above
[3] = target: Kruppel-like factor 5 (KLF5), endogenous (mouse (endogenous in mDPCs and molars)) (UniProt Q9Z0Z7); assay: proximity ligation; in situ PLA (Duolink) on paraffin sections of PN5 mouse molars; anti-PTEN mouse monoclonal with rabbit polyclonal anti-KLF5 or anti-WWP2
[4] = target: WW domain-containing E3 Ubiquitin-protein ligase 2 (WWP2), endogenous (mouse (endogenous in mDPCs and molars)) (UniProt Q9DBH0); assay: as above
[5] = target: Kruppel-like factor 5 (KLF5), overexpressed (UniProt Q9Z0Z7); assay: co-IP; overexpressed proteins in lysates of transfected HEK293E cells; primary antibody or control IgG at 4 °C overnight, protein A/G magnetic beads, Western blot
[6] = target: WW domain-containing E3 Ubiquitin-protein ligase 2 (WWP2), overexpressed (UniProt Q9DBH0); assay: as above

binding [1] | binding [2] | binding [3] | binding [4] | binding [5] | binding [6] | Substance
binds | binds | binds | binds | – | – | phosphatase and tensin homolog (PTEN), endogenous (from UniProt O08586 1-403)
– | – | – | – | binds | binds | phosphatase and tensin homolog (PTEN), overexpressed (from UniProt O08586 1-403)
